# Source: the supplement of paper PMC11348887
# Counter-ions that a name gives are not always drawn. Some of the results follow. Small differences around the control level are noise. Where a SMILES comes first, the peptide text is derived from it. Bridges are numbered along the chain shown (N, C = ends). [ ]: non-standard residue; d: D form. The star is where a group is joined. Ileψ(thiazoline)Cys = CC[C@H](C)[C@H](N)C1=N[C@H](C(=O)*)CS1; dOrn = NCCC[C@@H](N)C(=O)O
# System: hPSC-derived cortical neurons (WA09)
# Test: nucleus area z-score vs screen plate; higher = larger nuclei (more mature)
# Conditions: 5 µM; treatment: days 7-14 after plating, readout day 21
row,SMILES,nucleus area z-score
1,O=C(CCc1ccc(O)cc1)c1c(O)cc(O)cc1O [Phloretin],0.825
2,CCN(CC)Cc1ccc2cc(COC(=O)Nc3ccc(C(=O)NO)cc3)ccc2c1 [Givinostat (ITF2357)],-14.2
3,COc1cc(OCc2cccc(-c3ccccc3)c2C)cc(OC)c1CN1CCCC[C@H]1C(=O)O [PD-1/PD-L1 inhibitor 1],-0.255
4,O=C(Cc1ccc(-c2ccc(OCCN3CCOCC3)cc2)cn1)NCc1ccccc1,-15.5
5,CC/C(=C(\c1ccc(O)cc1)c1ccc(OCCNC)cc1)c1ccccc1 [Endoxifen HCl],-5.19
6,C[C@H](CCC(=O)O)[C@H]1CC[C@H]2[C@@H]3[C@@H](O)C[C@@H]4C[C@H](O)CC[C@]4(C)[C@H]3CC[C@]12C [Ursodiol],0.884
7,C[C@H](CCC(=O)O)[C@H]1CC[C@H]2[C@@H]3CC[C@@H]4C[C@H](O)CC[C@]4(C)[C@H]3CC[C@]12C [Lithocholic acid],0.28
8,Cc1cccc(Nc2nc(-c3ccncc3)cs2)c1,-1.96
9,CCCN[C@H]1CCc2nc(N)sc2C1 [Pramipexole 2HCl Monohydrate],0.531
10,O=C(CCCN1CCC(O)(c2ccc(Cl)cc2)CC1)c1ccc(F)cc1 [Haloperidol],-2.08
11,Cc1ccsc1C(=CCCN1CCC[C@@H](C(=O)O)C1)c1sccc1C [Tiagabine],0.143
12,CC(=O)OCC(=O)[C@@]1(O)CC[C@H]2[C@@H]3CCC4=CC(=O)C=C[C@]4(C)[C@H]3[C@@H](O)C[C@@]21C [Prednisolone Acetate],-0.332
13,COc1cc(C(=O)N2CCC(N3CCN(C)CC3)CC2)ccc1Nc1ncc2c(n1)N(C)c1ccccc1C(=O)N2C,-3.44
14,Cn1c(Nc2ccc(C(F)(F)F)cc2)nc2cc(Oc3ccnc(-c4ncc(C(F)(F)F)[nH]4)c3)ccc21,-2.01
15,CC1CNc2c(cccc2S(=O)(=O)N[C@@H](CCCNC(=N)N)C(=O)N2CC[C@@H](C)C[C@@H]2C(=O)O)C1 (stereo partly specified) [Argatroban],-1.11
16,CC(C(=O)O)c1ccc(C(=O)c2cccs2)cc1 (stereo unspecified) [Suprofen],0.0598

# A second format for part of the listing above:
row	SMILES	nucleus area z-score
3	COc1cc(OCc2cccc(-c3ccccc3)c2C)cc(OC)c1CN1CCCC[C@H]1C(=O)O [PD-1/PD-L1 inhibitor 1]	-0.255
4	O=C(Cc1ccc(-c2ccc(OCCN3CCOCC3)cc2)cn1)NCc1ccccc1	-15.5

# Following part:

row,SMILES,nucleus area z-score
1,S=C(NCc1ccc2c(c1)OCO2)N1CCN(c2ncnc3c2oc2ccccc23)CC1 [Amuvatinib (MP-470)],-0.0153
2,Cc1ccc(NC(=O)C2(c3ccc4c(c3)OC(F)(F)O4)CC2)nc1-c1cccc(C(=O)O)c1 [VX-809 (Lumacaftor)],1
3,C=CC(=O)Nc1cc(Nc2nccc(-c3cn(C)c4ccccc34)n2)c(OC)cc1N(C)CCN(C)C,-11.9
4,CC[C@H](C)[C@H](N)C1=N[C@H](C(=O)N[C@@H](CC(C)C)C(=O)N[C@H](CCC(=O)O)C(=O)N[C@H](C(=O)N[C@H]2CCCCNC(=O)[C@H](CC(N)=O)NC(=O)[C@@H](CC(=O)O)NC(=O)[C@H](Cc3cnc[nH]3)NC(=O)[C@@H](Cc3ccccc3)NC(=O)[C@H]([C@@H](C)CC)NC(=O)[C@@H](CCCN)NC2=O)[C@@H](C)CC)CS1 [Bacitracin] ({Ileψ(thiazoline)Cys}-L[dE]IK[dOrn]I[dF]H[dD]N; lactam 4-C),0.169
5,CCNC(=O)c1noc(-c2cc(C(C)C)c(O)cc2O)c1-c1ccc(CN2CCOCC2)cc1,-2.7
6,CN1CCN(c2ccc3nc(-c4c(N)c5c(F)cccc5[nH]c4=O)[nH]c3c2)CC1 [Dovitinib (TKI258) Lactate],-13.3
7,COc1ccc2cc1Oc1ccc(cc1)C[C@H]1c3c(cc4c(c3Oc3cc5c(cc3OC)CCN(C)[C@@H]5C2)OCO4)CCN1C [Cepharanthine],-17.4
8,CC/C(=C(/CC)c1ccc(O)cc1)c1ccc(O)cc1 [Diethylstilbestrol],-0.356
9,NC(=O)c1cccc2cn(-c3ccc([C@@H]4CCCNC4)cc3)nc12 [Niraparib (MK-4827) tosylate],0.8
10,Cc1cc(C)cc(C(=O)NOCCCCCC(=O)NO)c1,-13.6
11,CCOC(=O)C1=C[C@]2(CC)CCCN3CCc4c(n1c1ccccc41)[C@@H]32 [Vinpocetine],1.65
12,COc1ccc(CN2CCN(C(c3ccc(F)cc3)c3ccc(F)cc3)CC2)c(OC)c1OC [Lomerizine HCl],-1.36
13,Cc1cc(Cl)ccc1OCCCC(=O)NO [Droxinostat],-0.51
14,O=c1c(O)c(-c2ccc(O)cc2O)oc2cc(O)cc(O)c12 [Morin Hydrate],-0.495
15,COc1nc(OCc2cccc(-c3ccccc3)c2C)ccc1CNCCNC(C)=O [PD-1/PD-L1 inhibitor 2],-2
